Measurements from US20260226105A1, “Antimicrobial And Antibiofilm Peptides Sequences With Metal-Binding Motifs” (The Trustee of the University of Pennsylvania, priority 2021, published 2026).
Where two headings read alike, the source gives them in different places. Part of at least one peptide drawing is inferred or uncertain, most often the ends. Ends that are not written are not given here.

Tests used:
[1] = tested on: K. pneumoniae (KpC+ 1825971); conditions: versus CM15
[2] = tested on: E. coli MG1655; conditions: TETA versus no chelator
[3] = tested on: E. coli (KpC+1812446) planktonic cells; conditions: for Antibiotic MIC decrease (Fold): Planktonic; for MBIC Peptide + antibiotic / Interaction: Table 8, planktonic cells
[4] = tested on: E. coli (KpC+1812446) biofilm; conditions: for Antibiotic MIC decrease (Fold): Biofilm; for MBIC Peptide + antibiotic / Interaction: Table 7, biofilm
[5] = tested on: E. coli KpC+1812446; format: in vivo, mice; conditions: for mice protected: 10 mg·Kg^−1 intraperitoneal
Experimental: Male Balb/C (18-20 g) mice from the Biotério Central do Campus da USP in Ribeirão Preto, São Paulo, were kept in groups of 5 per cage at 22° C. with normal cycles of light and free access to food and water. The care and use of the animals were approved by the Ethics Committee of Universidade Católica Dom Bosco number 019/2016. We assessed the ability of the peptides to protect the mice from lethal systemic infections induced with E. coli KpC+1812446. The mice (n=40) were randomly placed into eight groups of five mice each, and each mouse was injected intraperitoneally with 200 μL of saline solution containing 2×10^7 CFU of E. coli KpC+1812446. Intraperitoneal treatment with 5 or 10 mg·Kg^−1 of each peptide was initiated after one hour of infection and repeated at 24 h intervals for seven days^61. Gentamicin at 10 mg·Kg^−1 of body weight and normal saline were used as positive and negative controls, respectively.

[6] = tested on: E. coli MG1655; conditions: peptides at their MICs, 1 h, 37° C.
[7] = peptide in combination with AmP
[8] = peptide in combination with CHL
[9] = peptide in combination with MER
[10] = peptide in combination with STR
[11] = peptide in combination with TRI

GGHKWKLFKKIGAVLKVL [GGH-CM15]
potency higher than the original peptide [1]: 4 fold | decrease of activity in the presence of TETA [2]: 2 fold | Antibiotic MIC decrease (Fold) ([3]; CHL combined with the peptide): 132 Fold | Antibiotic MIC decrease (Fold) ([3]; MER combined with the peptide): 4 Fold | Antibiotic MIC decrease (Fold) ([3]; TRI combined with the peptide): 4 Fold | MBIC Peptide + antibiotic [3, 7]: 4 µM | MBIC Peptide + antibiotic [3, 8]: 4 µM | MBIC Peptide + antibiotic [3, 9]: 2 µM | MBIC Peptide + antibiotic [3, 10]: 4 µM | MBIC Peptide + antibiotic [3, 11]: 2 µM | Antibiotic MIC decrease (Fold) ([4]; MER combined with the peptide): 32 Fold | Antibiotic MIC decrease (Fold) ([4]; STR combined with the peptide): 4 Fold | Antibiotic MIC decrease (Fold) ([4]; TRI combined with the peptide): 2 Fold | MBIC Peptide + antibiotic [4, 7]: 4 µM | MBIC Peptide + antibiotic [4, 8]: 4 µM | MBIC Peptide + antibiotic [4, 9]: 1 µM | MBIC Peptide + antibiotic [4, 10]: 2 µM | MBIC Peptide + antibiotic [4, 11]: 4 µM

KWKLFKKIGAVLKVL [CM15, KWKLFKKIGAVLKVL]
mouse survival cf. untreated control ([5]; 5 mg·Kg^−1 intraperitoneal, after seven days): prolonged mouse survival two-fold | decrease of activity in the presence of TETA [2]: unchanged | Antibiotic MIC decrease (Fold) ([3]; CHL combined with the peptide): 495 Fold | Antibiotic MIC decrease (Fold) ([3]; STR combined with the peptide): 4 Fold | Antibiotic MIC decrease (Fold) ([3]; TRI combined with the peptide): 8 Fold | Interaction ([3]; peptide + AmP): Indifferent | Interaction ([3]; peptide + CHL): Additive | Interaction ([3]; peptide + MER): Indifferent | Interaction ([3]; peptide + STR): Additive | Interaction ([3]; peptide + TRI): Synergy | MBIC Peptide + antibiotic [3, 7]: 4 µM | MBIC Peptide + antibiotic [3, 8]: 4 µM | MBIC Peptide + antibiotic [3, 9]: 2 µM | MBIC Peptide + antibiotic [3, 10]: 2 µM | MBIC Peptide + antibiotic [3, 11]: 2 µM | Antibiotic MIC decrease (Fold) ([4]; MER combined with the peptide): 4 Fold | Antibiotic MIC decrease (Fold) ([4]; STR combined with the peptide): 4 Fold | Interaction ([4]; peptide + AmP): Indifferent | Interaction ([4]; peptide + CHL): Indifferent | Interaction ([4]; peptide + MER): Synergy | Interaction ([4]; peptide + STR): Synergy | Interaction ([4]; peptide + TRI): Indifferent | MBIC Peptide + antibiotic [4, 7]: 2 µM | MBIC Peptide + antibiotic [4, 8]: 9 µM | MBIC Peptide + antibiotic [4, 9]: 0.56 µM | MBIC Peptide + antibiotic [4, 10]: 2 µM | MBIC Peptide + antibiotic [4, 11]: 9 µM | biofilm formation with the combination of meropenem and peptide ([4]; combination with meropenem): completely prevented

VIHKWKLFKKIGAVLKVL [VIH-CM15]
mice protected ([5]; after the first day): 60% | mice protected ([5]; at the sixth and seventh days): 40% | potency higher than the original peptide [1]: 8 fold | decrease of activity in the presence of TETA [2]: 2 fold | Antibiotic MIC decrease (Fold) ([3]; CHL combined with the peptide): 495 Fold | Antibiotic MIC decrease (Fold) ([3]; MER combined with the peptide): 2 Fold | Antibiotic MIC decrease (Fold) ([3]; STR combined with the peptide): 2 Fold | Antibiotic MIC decrease (Fold) ([3]; TRI combined with the peptide): 2 Fold | MBIC Peptide + antibiotic [3, 7]: 4 µM | MBIC Peptide + antibiotic [3, 8]: 4 µM | MBIC Peptide + antibiotic [3, 9]: 2 µM | MBIC Peptide + antibiotic [3, 10]: 4 µM | MBIC Peptide + antibiotic [3, 11]: 2 µM | Antibiotic MIC decrease (Fold) ([4]; MER combined with the peptide): 16 Fold | Antibiotic MIC decrease (Fold) ([4]; STR combined with the peptide): 2 Fold | Antibiotic MIC decrease (Fold) ([4]; TRI combined with the peptide): 2 Fold | MBIC Peptide + antibiotic [4, 7]: 4 µM | MBIC Peptide + antibiotic [4, 8]: 3 µM | MBIC Peptide + antibiotic [4, 9]: 1 µM | MBIC Peptide + antibiotic [4, 10]: 4 µM | MBIC Peptide + antibiotic [4, 11]: 4 µM | average SYTOX Green intensity (membrane permeation) [6]: lower levels of intracellular SYTOX Green
